Publication PMC12714725
Where a chain is given by its changes, count along the chain named. These are yes or no findings as the source states them, for the method shown. Some results given as binding are weak or reduced against the parent protein; the word gives no strength. Tags and fused reporters may be left off the sequences shown.

Chains of the proteins cited; added tags and fusions are not shown.
UniProt Q27497: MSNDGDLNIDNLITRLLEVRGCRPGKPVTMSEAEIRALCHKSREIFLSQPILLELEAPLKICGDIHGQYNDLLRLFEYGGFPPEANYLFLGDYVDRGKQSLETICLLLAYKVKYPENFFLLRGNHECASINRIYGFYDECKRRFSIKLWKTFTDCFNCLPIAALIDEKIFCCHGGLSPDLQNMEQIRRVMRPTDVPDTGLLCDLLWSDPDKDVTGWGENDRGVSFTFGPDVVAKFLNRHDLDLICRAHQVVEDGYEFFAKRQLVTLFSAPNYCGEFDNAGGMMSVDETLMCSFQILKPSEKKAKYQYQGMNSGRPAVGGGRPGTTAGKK
UniProt P48727: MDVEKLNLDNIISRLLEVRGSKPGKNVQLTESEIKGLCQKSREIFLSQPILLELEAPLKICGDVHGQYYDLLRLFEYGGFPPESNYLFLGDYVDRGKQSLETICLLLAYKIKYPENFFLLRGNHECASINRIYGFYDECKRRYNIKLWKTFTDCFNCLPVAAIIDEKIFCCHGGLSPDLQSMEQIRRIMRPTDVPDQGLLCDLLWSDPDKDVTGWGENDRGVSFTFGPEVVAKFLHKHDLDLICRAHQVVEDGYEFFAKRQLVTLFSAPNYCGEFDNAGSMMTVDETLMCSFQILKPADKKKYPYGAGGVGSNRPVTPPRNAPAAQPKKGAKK

Experiments:
[1] = target: T1, Full-length SDS-22(E153A) fused to the GAL4 DNA binding domain (C. elegans) (UniProt P45969); test: two-hybrid; GAL4-based yeast two-hybrid (Gateway), MAV203 yeast; SDS-22 as bait (GAL4 DBD), GSP-1 or GSP-2 as prey (GAL4 AD); growth on medium lacking leucine, tryptophan and histidine with 7.5 mM 3AT
T1 sequence: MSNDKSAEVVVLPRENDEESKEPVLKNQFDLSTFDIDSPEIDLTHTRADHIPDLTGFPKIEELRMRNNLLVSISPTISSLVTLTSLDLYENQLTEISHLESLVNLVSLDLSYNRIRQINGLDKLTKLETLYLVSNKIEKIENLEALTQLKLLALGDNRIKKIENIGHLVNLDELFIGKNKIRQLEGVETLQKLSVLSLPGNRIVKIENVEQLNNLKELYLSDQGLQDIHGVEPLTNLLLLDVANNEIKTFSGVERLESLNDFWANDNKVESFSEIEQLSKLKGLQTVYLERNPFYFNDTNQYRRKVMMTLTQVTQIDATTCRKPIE

[2] = target: T2, Full-length SDS-22 (1-326) fused to the GAL4 DNA binding domain (C. elegans) (UniProt P45969); test: as above
T2 sequence: T1 sequence with A153E

Row | Substance | binding [1] | binding [2]
1 | Full-length GSP-1 fused to the GAL4 activation domain (from UniProt Q27497 1-329) (enzyme) | no binding | binds
2 | Full-length GSP-2 fused to the GAL4 activation domain (from UniProt P48727 1-333) (enzyme) | no binding | binds
